Measured values taken from PubChem BioAssay AID504444 (National Center for Advancing Translational Sciences (NCATS), 2011).
About 7,500 (2.1%) of roughly 360,000 compounds were called active. This list was built around the results that the source calls inconclusive (neither active nor inactive); the mix of calls is not that of the screen. The call rests on the fitted dose curve; in most records, active means well fitted inhibition curve with a large enough effect; inconclusive means small, poorly fitted or top-dose-only effect, or effect the other way; inactive means flat fitted curve, though single readings scatter. A potency beside an inconclusive call is a rough fit, not a confirmed value.

Experiment: Nrf2 qHTS screen for inhibitors; further: nearly all actives have a fitted effect of over 60% in size
Conditions: A549 ARE-Fluc reporter, luciferase luminescence, 18-24 h; activity change, negative = inhibition: at 46 µM (top of the series)
How it was run: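 A549 ARE_Fluc cells, 5000/well, 5% FBS OPTI-MEM; compounds in dose-response, 18-24 h at 37 °C/5% CO2; CellTiter-Fluor viability read (Ex 405/Em 525), then BugLite luciferase luminescence = Nrf2 activity.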
On the % scale 0 is the no-effect control and ±100 the full control effect; potency means the concentration at half of the fitted maximal effect.

| SMILES | Potency | activity change, negative = inhibition |
| --- | --- | --- |
| CCN1C(=O)C(=Cc2ccc(C)s2)C(=O)N(CC)C1=S | inconclusive: 8.2 µM [activator, partial curve] |  |
| CC(=O)Nc1ccccc1C(=O)OCc1ccc(C(=O)c2ccccc2)cc1 |  | inactive: -36.8% |
| CC(C)N1CCN(Cc2ccccc2C(F)(F)F)CC1CCO (stereo not drawn) | inconclusive: 6.51 µM [activator, partial curve, poor fit] |  |
| COc1ccc(CN2CCN(c3ccccc3)CC2)c(C)c1C | inconclusive: 7.31 µM [falling, partial curve, poor fit] |  |
| CC(=O)c1cn(CCCOc2ccccc2)c2ccccc12 | active: 20.6 µM |  |
| O=C(CCC(=O)N1C[C@H]2C[C@@H](C1)c1cccc(=O)n1C2)NCc1cccc(C(F)(F)F)c1 |  | inactive: -4.79% |
| c1ccc2nc3ccccc3nc2c1 | active: 20.6 µM |  |
| O=C1CN(O)C(c2ccccc2Cl)=c2cc(Br)ccc2=N1 | inconclusive: 25.9 µM [activator, single point] |  |
| NC1=Nc2ccccc2Oc2ccccc21 | inconclusive: 20.6 µM [falling, single point] |  |
| O=C(OCC(=O)c1cccs1)C1=COCCO1 | inconclusive: 29.1 µM [activator, single point] |  |
| CN(Cc1ccccc1)C(=O)c1ccc(NC(=O)C2CCN(C(=O)OC(C)(C)C)CC2)cc1 | active: 16.4 µM |  |
| O=C(CNC(=O)c1cccc(Cl)c1)Nc1ccc(Br)cc1C(=O)c1ccccc1 | inconclusive: 29.1 µM [falling, partial curve, poor fit] |  |
| Cc1cc(C)cc(NC2=NCCCS2)c1 | inconclusive: 18.4 µM [activator, partial curve, poor fit] |  |
| Cc1ccc2[nH]c(C)c(CCNC(=O)c3cc4cc([N+](=O)[O-])ccc4oc3=O)c2c1 | inconclusive: 23.1 µM [falling, partial curve] |  |
| Cc1ccc(C2NC(=S)NC(c3ccc(C)cc3)C23C(=O)NC(=O)NC3=O)cc1 (stereo not drawn) | inconclusive: 6.51 µM [falling, single point] |  |
| CCC1(O)C(=O)OCc2c1cc1n(c2=O)Cc2cc3cc(O)ccc3nc2-1 (stereo not drawn) | active: 2.31 µM |  |
| CCOC(=O)Cn1cc(C(=O)c2ccccc2F)c2ccccc21 |  | inactive: 20.1% |
| CN(C)c1ccc(C=C2C(=O)NC(=O)NC2=O)cc1[N+](=O)[O-] |  | inactive: 1.34% |
| CCC1(Cc2ccccc2)C(=O)NC(=S)N(C)C1=O (stereo not drawn) |  | inactive: 11.2% |
| COCCCn1c(-c2ccc(OC)cc2)cc(C(=O)NC2CCCCCCC2)c1C | inconclusive: 23.1 µM [falling, single point] |  |
| CC1CC2(C)C(=CC1=O)CCC1C3CCC(C)(O)C3(C)CC3OC312 (stereo not drawn) | inconclusive: 8.2 µM [falling, partial curve, poor fit] |  |
| Clc1ccc(C[n+]2c(-c3ccccc3)cc(-c3ccccc3)cc2-c2ccccc2)cc1 | active: 20.6 µM |  |
| OC(CCCN1CCC(O)(c2ccc(Cl)cc2)CC1)c1ccc(F)cc1 (stereo not drawn) | inconclusive: 20.6 µM [falling, partial curve] |  |

| SMILES | Potency | activity change, negative = inhibition |
| --- | --- | --- |
| CN(C)c1ccc(C(=O)c2ccc(N(C)C)cc2)cc1 | inconclusive: 0.58 µM [activator, full curve, poor fit] |  |
| Cc1nn(Cc2ccc(Cl)cc2Cl)c(Cl)c1C(=O)O |  | inactive: 11.9% |
| COC(=O)c1ccc(N2CCN(C)CC2)c([N+](=O)[O-])c1 |  | inactive: 0.185% |
| COc1ccc2[nH]c(C)c(CCNCc3cccnc3)c2c1 |  | inactive: 3.27% |
| c1nc2nc3c(c(N4CCNCC4)n2n1)CCCC3 |  | inactive: 3.42% |
| COC(=O)C1=C(c2ccc(-c3ccccc3)c(F)c2)C[C@@H]2CC[C@H]1N2C(=O)N1CCC(O)CC1 | inconclusive: 29.1 µM [falling, single point] |  |
| Cc1cc[n+](Cc2ccccc2)cc1 | active: 18.4 µM |  |
| CC12CCC3C(CC=C4CC(O)CCC43C)C1C/C(=C\c1ccccc1F)C2=O (stereo not drawn) | inconclusive: 20.6 µM [falling, partial curve] |  |
| Cc1ccc(-c2nnc(Nc3ccc(Br)cc3)c3ccccc23)cc1S(=O)(=O)NCc1nc2ccccc2[nH]1 | inconclusive: 32.6 µM [falling, single point] |  |
| CNS(=O)(=O)c1ccc(N=Cc2c(O)n(-c3cccc(C)c3)c(=O)[nH]c2=O)cc1 |  | inactive: 3.44% |
| COc1ccc(C(CNC(=O)CCc2ccsc2)N(C)C)cc1 (stereo not drawn) | inconclusive: 29.1 µM [activator, single point] |  |
| Cc1ccc(S(=O)(=O)c2nnn3c2nc(N2CCC(C(N)=O)CC2)c2cc(Cl)ccc23)cc1C | inconclusive: 29.1 µM [falling, single point] |  |
| O=C(c1ccc2c(c1)OCO2)C1CCCN(CC2CCCCC2)C1 (stereo not drawn) | inconclusive: 2.91 µM [activator, full curve, poor fit] |  |
| CCC(C)NC(=O)c1c(N)n(CC2CCCO2)c2nc3ccccc3nc12 (stereo not drawn) | inconclusive: 18.4 µM [falling, partial curve, poor fit] |  |
| COc1ccc(-n2nc(C(=O)NCC(=O)N3CCC4(CC3)OCCO4)c3ccccc3c2=O)c(OC)c1 | inconclusive: 3.66 µM [activator, partial curve, poor fit] |  |
| CCCCCn1c(=O)c(C(=O)Nc2ccccc2C)c(O)c2ccccc21 | inconclusive: 16.4 µM [activator, single point] |  |
| Cc1ccc2c(C)c3ccc4ccccc4c3c[n+]2c1 | active: 2.59 µM |  |
| CCCCOC(=O)COc1cc(C)cc2oc(=O)c3c(c12)CCC3 | inconclusive: 6.51 µM [falling, single point] |  |
| Cc1cccc(OP(=O)(NCc2ccccc2)Oc2cccc(C)c2)c1 | inconclusive: 29.1 µM [falling, single point] |  |
| CN(C)[C@@H]1C(=O)C(C(N)=O)=C(O)[C@@]2(O)C(=O)C3=C(O)c4c(O)cccc4[C@@](C)(O)C3[C@H](O)C12 (stereo partly drawn) | inconclusive: 25.9 µM [falling, single point] |  |
| CCCC[N+]12CCC(CC1)C(=C(c1ccccc1)c1ccccc1)C2 |  | inactive: -4.57% |
| COc1ccc(CCNC(=O)c2c(N)n(CCN3CCOCC3)c3nc4ccccc4nc23)cc1 | inconclusive: 29.1 µM [falling, single point] |  |
| O=C1NC(=O)C(Cc2ccccc2)(Cc2ccccc2)C(=O)N1Cc1ccccc1 | inconclusive: 29.1 µM [falling, single point] |  |

| SMILES | Potency | activity change, negative = inhibition |
| --- | --- | --- |
| COc1ccc(N2C(=O)NC(=O)/C(=C\c3ccc([N+](=O)[O-])s3)C2=O)cc1 |  | inactive: -23.4% |
| S=P(N1CCCCCC1)(N1CC1)N1CC1 | inconclusive: 1.64 µM [falling, full curve] |  |
| COC1CC(C)C(OC)c2cc(O)cc(c2O)NC(=O)C(C)=CC=CC(C)C(OC(N)=O)C(C)=CC(C)C1OC (stereo not drawn) | inconclusive: 2.91 µM [activator, full curve, poor fit] |  |
| O=C(c1ccccc1F)c1cn(Cc2ccc(F)cc2)c2ccccc12 | inconclusive: 29.1 µM [falling, single point] |  |
| COc1ccc(CN2Cc3cnnn3-c3ccccc3C2C#N)cc1 (stereo not drawn) |  | inactive: 7.4% |
| CCN(CC)CCNC(=O)c1c(O)c2ccccc2n(Cc2ccccc2)c1=O |  | inactive: -33.6% |
| COC(=O)C1=C(c2ccccc2OCc2ccccc2)C[C@@H]2CC[C@H]1N2C(=O)NCc1ccc(OC)c(OC)c1 | inconclusive: 13 µM [falling, partial curve, poor fit] |  |
| CC(=O)OC(C)(C)/C=C/C(=O)C(C)(O)C1[C@H](O)C[C@@]2(C)C3CC=C4C(CC[C@@H](O)C4(C)C)[C@]3(CO)C(=O)C[C@]12C (stereo partly drawn) | active: 0.231 µM |  |
| CC(CNC(=O)c1ccc(CSc2nc3ccncc3n2Cc2ccc(F)cc2)cc1)c1ccccc1 (stereo not drawn) | active: 23.1 µM |  |
| COC(=O)C1=C(c2ccc(F)cc2F)C[C@@H]2CC[C@H]1N2C(=O)NCc1ccc(F)cc1 |  | inactive: -24.7% |
| O=C1CC(=O)N(c2cccc(F)c2)C(=O)N1 | inconclusive: 6.51 µM [falling, single point] |  |
| Cc1cc(C)c(C(=O)N2CCC3(CC2)OCCO3)c(C)c1 | inconclusive: 32.6 µM [activator, single point] |  |
| CC(C)NS(=O)(=O)c1ccc(OCC(=O)N2CCN(Cc3ccc4c(c3)OCO4)CC2)c(Cl)c1 | inconclusive: 18.4 µM [falling, partial curve, poor fit] |  |
| COc1cccc(-n2c(/C=C/c3ccc(O)c(O)c3)nc3ccccc3c2=O)c1 |  | inactive: -7.6% |
| O=S(=O)(c1ccccc1C(F)(F)F)N1CCN(c2ncnc3sccc23)CC1 | inconclusive: 20.6 µM [falling, single point] |  |
| OC1(c2ccccc2F)CC2CCC(C1)N2CCN1CCOCC1 (stereo not drawn) | inconclusive: 0.082 µM [activator, full curve, poor fit] |  |
| CC12CC(=O)C3C(CCC4CC(=O)C=CC43C)C1CCC2=O (stereo not drawn) | active: 3.26 µM |  |
| C[C@]12CC[C@H]3C(=CCc4cc(O)ccc43)[C@@H]1CCC2=O | inconclusive: 32.6 µM [falling, single point] |  |
| O=C(N/N=C/c1c(O)n(C2CC2)c(=S)[nH]c1=O)c1ccccc1 | inconclusive: 5.8 µM [activator, partial curve, poor fit] |  |
| Cc1ccc(N2C(=O)NC(=O)/C(=C/c3cnc(-c4ccccc4)nc3)C2=O)cc1C | inconclusive: 9.2 µM [activator, partial curve, poor fit] |  |
| COc1ccc(C2=NS(=O)(=O)N(C)C(C(=O)N3CCC4(CC3)OCCO4)=C2)cc1OC | inconclusive: 16.4 µM [falling, partial curve, poor fit] |  |
| CC(C)OCCCNC(=O)c1c(N)n(Cc2cccs2)c2nc3ccccc3nc12 | inconclusive: 29.1 µM [falling, single point] |  |

Complete entries from above.
CNS(=O)(=O)c1ccc(N=Cc2c(O)n(-c3cccc(C)c3)c(=O)[nH]c2=O)cc1 as listed: activity change, negative = inhibition: inactive: 3.44%
O=C(CCC(=O)N1C[C@H]2C[C@@H](C1)c1cccc(=O)n1C2)NCc1cccc(C(F)(F)F)c1 as listed: activity change, negative = inhibition: inactive: -4.79%
